Among all 1,400 compounds or so, about 45 (3%) were called active.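 The calls were made as follows: active = half-maximal dose of signal decrease from fit no higher than ten times the top valid tested dose; inconclusive = fit invalid, or curve flat with 30 to 70% inhibition; inactive = the rest.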 The list shows a part of the results. Results with a measured potency or affinity are listed apart.

The chains behind the UniProt entries cited, without tags or fusion partners. Where a name states a change or a piece, a line headed by the entry shows the natural chain unless it says otherwise.
UniProt O75164: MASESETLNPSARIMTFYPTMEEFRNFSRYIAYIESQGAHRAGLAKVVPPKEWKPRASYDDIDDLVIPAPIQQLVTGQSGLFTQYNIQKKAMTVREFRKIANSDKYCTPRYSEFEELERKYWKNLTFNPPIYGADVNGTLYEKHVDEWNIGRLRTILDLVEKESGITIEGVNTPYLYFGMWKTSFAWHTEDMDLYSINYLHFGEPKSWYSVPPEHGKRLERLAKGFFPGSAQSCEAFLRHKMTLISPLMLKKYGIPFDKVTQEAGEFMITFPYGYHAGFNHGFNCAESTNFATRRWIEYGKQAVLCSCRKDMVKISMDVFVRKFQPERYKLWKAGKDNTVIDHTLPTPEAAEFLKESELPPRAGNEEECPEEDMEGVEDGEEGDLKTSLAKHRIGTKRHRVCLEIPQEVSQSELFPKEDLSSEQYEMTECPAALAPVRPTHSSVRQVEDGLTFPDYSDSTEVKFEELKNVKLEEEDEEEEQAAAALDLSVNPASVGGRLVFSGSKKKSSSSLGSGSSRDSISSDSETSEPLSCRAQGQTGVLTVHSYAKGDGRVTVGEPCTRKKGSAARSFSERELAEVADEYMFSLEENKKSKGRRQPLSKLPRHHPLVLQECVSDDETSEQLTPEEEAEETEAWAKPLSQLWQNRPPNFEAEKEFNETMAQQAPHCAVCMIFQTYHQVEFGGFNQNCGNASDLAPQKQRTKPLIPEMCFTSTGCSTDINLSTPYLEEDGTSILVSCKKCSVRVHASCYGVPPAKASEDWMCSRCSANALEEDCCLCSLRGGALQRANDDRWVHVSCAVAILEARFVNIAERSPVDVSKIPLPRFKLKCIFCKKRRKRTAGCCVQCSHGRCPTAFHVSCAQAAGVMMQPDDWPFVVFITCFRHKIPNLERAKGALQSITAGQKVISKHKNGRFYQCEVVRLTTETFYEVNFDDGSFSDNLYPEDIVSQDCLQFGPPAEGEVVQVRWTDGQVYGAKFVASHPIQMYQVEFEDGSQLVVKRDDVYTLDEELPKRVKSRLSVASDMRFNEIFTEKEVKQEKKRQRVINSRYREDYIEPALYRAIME

The experiment has as its target Lysine-specific demethylase 4A (Homo sapiens) (UniProt O75164). Description: inhibition of JMJD2A H3K9me3 demethylation – biochemical, DELFIA europium, cherry-picked samples, selectivity assay for GASC-1 inhibitor project, dose response (AID 488840).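 Also: europium signal reports the dimethyl H3K9 product detected by antibody so inhibitors lower it; 0% = median of neutral control wells and -100% = median of positive control wells.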 The note with it: GST-JMJD2A(1-420) H3K9me3 demethylation; at 6 µM (top of the series) unless noted.
For `Cc1cc(C)cc(C(=O)N2CCC(C(N)=O)CC2)c1`, the activity change, negative = inhibition is inactive: -0.587%. To `CCNC(=S)NC(=NCc1cccnc1)Nc1nc(C)cc(C)n1` belongs inactive: 9.23%. For `C=CCn1c(N)c(-c2nc3ccccc3n2C)sc1=S` the value was inactive: 3.81%. For `Cc1ccc(S(=O)(=O)N2CCN(C(=O)N3CCOCC3)CC2)cc1C` the value was inactive: 1.94%. With `N#Cc1cnc(NOCc2ccc(Cl)cc2)nc1`, the activity change, negative = inhibition is inactive: 1.33%.

`Cc1cccn2c(=O)c(C(=O)NC3CC(C)CC(C)(C)C3)c(O)nc12` (stereo unspecified): the activity change, negative = inhibition was inactive: -0.897%. `O=C(c1cc2ccccc2oc1=O)N1CCN(CCc2ccccc2)CC1`: the activity change, negative = inhibition is inactive: 1.84%. Consider `NC(=O)C1CCN(c2nc(-c3ccc4c(c3)OCCO4)cs2)CC1`, for which the activity change, negative = inhibition is inactive: 0.679%. As to `N#Cc1cnn(CC2CCCCC2)c1N`, the activity change, negative = inhibition is inactive: 2.59%.

For `Fc1ccc(NC(=S)Nc2ccc(Cl)cc2Cl)cc1`, the activity change, negative = inhibition was inactive: 2.35%. For the compound `O=c1c2c(nc3c(-c4cccc5ccccc45)c[nH]n13)CCC2`, the activity change, negative = inhibition was inactive: -0.649%. On to `CCSCC1COC(c2cccn2Cc2ccc(C)cc2)=N1` (stereo unspecified), for which the activity change, negative = inhibition is inactive: -4.65%. Turning to `O=C(COC(=O)Cc1ccccc1F)Nc1ccc(SC(F)F)cc1`, the activity change, negative = inhibition is inactive: -4.57%. Take `O=C(CN1C(=O)NC2(CCCC2)C1=O)Nc1nc(-c2ccccc2)cs1`: the activity change, negative = inhibition was inactive: -5.41%. As to `O=[N+]([O-])c1ccc(N2CCN(S(=O)(=O)c3ccc(Cl)cc3)CC2)cc1NCc1cccnc1`, the activity change, negative = inhibition is inactive: 0.661%.

As for `C[C@H](CO)N1C[C@H](C)[C@@H](CN(C)Cc2ccc(Cl)c(Cl)c2)Oc2c(NC(=O)c3ccncc3)cccc2C1=O`, the activity change, negative = inhibition is inactive: 4.03%. On to `Cc1[nH]n(-c2ccccc2)c(=O)c1N=Nc1nccs1`, for which the activity change, negative = inhibition is inactive: -5.78%. Take `COC(=O)c1cc(S(=O)(=O)N2CCN(c3ccc(F)cc3)CC2)c[nH]1`: the activity change, negative = inhibition was inactive: -2.52%.

Regarding `Cc1cccn2c(=O)c(/C=N/O)c(N3CCCC3)nc12`, the activity change, negative = inhibition was inactive: -2.96%. Regarding `CN(C)/C=C1/Nc2ccccc2C1=O`, the activity change, negative = inhibition was inactive: 3.33%.

Take `CC1CCCC(NC(=O)COC(=O)c2ccc(N(C)C)cc2)C1C` (stereo unspecified): the activity change, negative = inhibition was inactive: -4.03%. Turning to `C[C@H](CO)N1C[C@H](C)[C@@H](CN(C)Cc2ccc(C(=O)O)cc2)Oc2c(NC(=O)c3ccncc3)cccc2C1=O`, the activity change, negative = inhibition was inactive: 2.71%. For `COC(=O)[C@]1(Cc2ccccc2)N[C@H](CN(C)S(=O)(=O)c2ccc(-c3ccccc3)cc2)[C@@H]2C(=O)N(C)C(=O)[C@@H]21` the value was inactive: -0.613%.

In the case of `Cc1nnc(SCC(=O)Nc2sccc2C(N)=O)n1Cc1ccccc1`, the activity change, negative = inhibition was inactive: 8.28%.

As to `CCC(C)(C)NC(=O)C(c1ccc(C)o1)N(Cc1cccs1)C(=O)Cn1nnc2ccccc21` (stereo unspecified), the activity change, negative = inhibition is inactive: -1.28%. Take `Clc1ccc(N=c2ssnc2Cl)nc1`: the activity change, negative = inhibition was inactive: -2.24%.

In the case of `OCc1csc(=Nc2ccccc2)n1-c1ccccc1`, the activity change, negative = inhibition was inactive: 5.61%. As for `CS(=O)(=O)N(CC(=O)Nc1ccccc1C(=O)NCCc1ccccc1)c1ccc2c(c1)OCCO2`, the activity change, negative = inhibition is inactive: 0.741%. Consider `O=c1oc2ccccc2cc1-c1nc(-c2cccs2)cs1`, for which the activity change, negative = inhibition was inactive: -0.264%. With `CC(C)Cn1c(N)c(C(=O)COC(=O)c2c(O)c(Cl)cc(Cl)c2Cl)c(=O)n(C)c1=O`, the activity change, negative = inhibition was inactive: 3.81%. Regarding `Cc1c(Cl)c(-c2n[nH]c(=S)n2-c2ccc(F)cc2)nn1C`, the activity change, negative = inhibition was inactive: -13%. Take `COc1cc(OC)cc(C(=O)Nc2ccc(-n3cnnn3)c(C)c2)c1`: the activity change, negative = inhibition is inactive: 0.0409%. Turning to `Cc1ccc(C)c(N2CCN(C(=O)Cn3ncc4c([nH]c5ccc(C)cc54)c3=O)CC2)c1`, the activity change, negative = inhibition was inactive: 6.03%.

`COc1ccc(/C=N/N=C2\CC3CCC2(C)C3(C)C)cc1O` (stereo unspecified): the activity change, negative = inhibition was inactive: 0.844%.

Regarding `CCOC(=O)N1CCN(C(=S)NC(=O)c2ccc(F)cc2)CC1`, the activity change, negative = inhibition is inactive: -5.79%. Turning to `COc1ccc(/C=C2/CC/C(=C\c3ccc(OC)c(OC)c3OC)C2=O)c(OC)c1OC`, the activity change, negative = inhibition was inactive: -0.189%.

On to `CC(C)(C)n1ncc2c(=O)n(Cc3ccccc3Br)cnc21`, for which the activity change, negative = inhibition is inactive: 4.21%. `Cc1ccc(S(=O)(=O)NCCC(=O)Oc2ccc3ccc(=O)oc3c2)cc1`: the activity change, negative = inhibition is inactive: -3.57%. For the compound `C=CCn1c(O)c(N=Nc2ccccc2C)c2ccccc21`, the activity change, negative = inhibition is inactive: -6.46%. Take `Oc1ccc(Br)cc1/C=N/Nc1nc(N2CCCCC2)nc(N2CCOCC2)n1`: the activity change, negative = inhibition is inactive: -3.41%. `Cc1ccc(OCCSc2nnc(-c3cccs3)n2C)cc1`: the activity change, negative = inhibition is inactive: -1.32%. In the case of `CC[C@@H]1C=C(C(=O)O)[C@H](c2ccc(C)cc2)N1S(=O)(=O)c1ccc(C)cc1`, the activity change, negative = inhibition is inactive: -2.45%. For `Cc1cc(N(CN2CCCC2=O)C(=O)c2ccc(F)cc2)no1`, the activity change, negative = inhibition is inactive: -4.04%.

As for `N#CC1=C(C2CC2)CC(c2ccccc2)C(C#N)=C1N` (stereo unspecified), the activity change, negative = inhibition was inactive: 1.86%. For `Cn1c(SCC(=O)N2CCCC2=O)nnc1-c1ccccc1F` the value was inactive: 4.73%; for `COc1ccc(-c2csc(NNC3=NCCCCC3)n2)cc1`, inactive: 0.166%. With `CCN(CC)C(=O)[C@H]1CC(CC(=O)NC/C=C(\C)CCC=C(C)C)C(=O)N2CCc3c([nH]c4ccccc34)[C@]12C` (stereo partly specified), the activity change, negative = inhibition is inactive: 7.5%. For `Cc1ccc(NC(=O)CSc2nc3c(c(=O)[nH]2)CN(Cc2ccc(F)cc2)CC3)cc1C` the value was inactive: -2.11%. As for `C/C(=N\NC(=S)NCc1ccccc1)c1ccco1`, the activity change, negative = inhibition was inactive: 2.89%. Take `COc1cc2c(cc1OC)C(COc1ccc(F)cc1)NCC2` (stereo unspecified): the activity change, negative = inhibition is inactive: -1.68%. In the case of `O=C1CC(=O)N(Cc2ccco2)C(=O)N1`, the activity change, negative = inhibition was inactive: 50.8%.

With `C#CCOCCOCCOCCNc1nc(N2CCN(C(=O)[C@H](CCCN=C(N)N)n3cc(C(N)[C@@H](C)CC)nn3)CC2)nc(N2CCN(C(=O)[C@H](CCC(=O)O)n3cc([C@@H](N)[C@H](C)CC)nn3)CC2)n1` (stereo partly specified), the activity change, negative = inhibition was inactive: 1.17%. Consider `COC(=O)[C@]1(C)N[C@H](CN(C)C(=O)NC(C)C)[C@@H]2C(=O)N(Cc3ccccc3)C(=O)[C@@H]21`, for which the activity change, negative = inhibition is inactive: -0.959%. To `Cc1ccc(C2CC(c3cccc(Br)c3)Nc3nnnn32)cc1` (stereo unspecified) belongs inactive: 1.72%; to `Cc1cc2cc3c(cc2nc1SCC(=O)N1CCOCC1)OCO3`, inactive: -2.6%; to `C[C@H]1CN([C@@H](C)CO)C(=O)c2cccc(NS(=O)(=O)c3ccc(F)cc3)c2O[C@H]1CN(C)S(=O)(=O)c1cn(C)cn1`, inactive: 3.04%.
